Assay results published in PMC7710356, “RNF41 regulates the damage recognition receptor Clec9A and antigen cross-presentation in mouse dendritic cells” (eLife, 2020).
No constants are given. Whether binding was seen depends on the method and setting. Sequences can lack the tags named with a protein.

Protein sequences, listed by entry. Tags and fused reporters are not part of them. Residues count along the entry.
UniProt Q6UXN8, residues 57-241: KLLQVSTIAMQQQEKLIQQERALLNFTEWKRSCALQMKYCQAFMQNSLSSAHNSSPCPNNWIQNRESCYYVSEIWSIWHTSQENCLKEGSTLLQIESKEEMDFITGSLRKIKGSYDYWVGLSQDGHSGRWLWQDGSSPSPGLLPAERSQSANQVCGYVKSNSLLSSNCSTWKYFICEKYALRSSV

T1: GST-tagged RNF41 N-terminal domains (RNF41-RBC) (human) (UniProt Q9H4P4)
T1 sequence: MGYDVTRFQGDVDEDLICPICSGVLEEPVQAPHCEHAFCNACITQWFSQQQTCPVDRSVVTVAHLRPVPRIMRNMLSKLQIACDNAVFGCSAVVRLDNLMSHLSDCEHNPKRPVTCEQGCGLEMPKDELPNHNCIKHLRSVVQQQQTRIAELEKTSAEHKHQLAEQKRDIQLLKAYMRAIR

T2: GST-tagged RNF41 C-terminal domain (RNF41-C) (human) (UniProt Q9H4P4)
T2 sequence: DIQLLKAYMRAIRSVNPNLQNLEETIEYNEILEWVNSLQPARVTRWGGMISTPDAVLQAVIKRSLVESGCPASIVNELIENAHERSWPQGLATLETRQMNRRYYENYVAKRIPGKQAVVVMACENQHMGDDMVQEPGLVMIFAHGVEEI

T3: GST-tagged full-length human RNF41 (RNF41-RBCC) (human) (UniProt Q9H4P4)
T3 sequence: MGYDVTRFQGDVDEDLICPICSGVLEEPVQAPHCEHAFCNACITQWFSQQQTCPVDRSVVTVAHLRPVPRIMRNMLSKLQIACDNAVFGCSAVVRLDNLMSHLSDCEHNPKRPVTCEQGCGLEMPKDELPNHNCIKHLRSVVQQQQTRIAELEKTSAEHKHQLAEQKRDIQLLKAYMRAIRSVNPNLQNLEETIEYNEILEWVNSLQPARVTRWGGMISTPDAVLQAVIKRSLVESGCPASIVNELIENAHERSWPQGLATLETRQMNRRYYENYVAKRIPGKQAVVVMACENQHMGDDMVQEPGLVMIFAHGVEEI

T4: GST-tagged human RNF41 on the ProtoArray Human Protein MicroArray (human) (UniProt Q9H4P4)
T4 sequence: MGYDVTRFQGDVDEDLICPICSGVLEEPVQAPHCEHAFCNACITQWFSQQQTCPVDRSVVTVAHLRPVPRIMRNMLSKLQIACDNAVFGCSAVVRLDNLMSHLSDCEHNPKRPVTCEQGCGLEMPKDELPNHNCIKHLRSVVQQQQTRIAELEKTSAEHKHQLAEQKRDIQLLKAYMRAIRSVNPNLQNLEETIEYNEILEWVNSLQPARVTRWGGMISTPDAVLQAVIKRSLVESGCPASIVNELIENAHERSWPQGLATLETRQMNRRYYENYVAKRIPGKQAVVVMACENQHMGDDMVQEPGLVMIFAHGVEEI


Legend:
[1] = biological target: T1, GST-tagged RNF41 N-terminal domains (RNF41-RBC) (human); assay: ELISA; plates coated with GST-RNF41-C, GST-RNF41-RBC or GST (10 μg/ml); FLAG-tagged Clec ectodomains 10 to 0.04 μg/ml in solution; detected with anti-FLAG HRP; both purified
[2] = biological target: T2, GST-tagged RNF41 C-terminal domain (RNF41-C) (human); assay: as above
[3] = biological target: T3, GST-tagged full-length human RNF41 (RNF41-RBCC) (human); assay: pull-down; GST or GST-RNF41 proteins on glutathione-sepharose; 1 μg/ml purified FLAG-tagged soluble Clec; 0.2% NP-40, 2% glycerol, 20 mM Tris-buffered saline pH 7.5; 4°C, 2 hr; anti-FLAG western blot; both purified
[4] = biological target: T4, GST-tagged human RNF41 on the ProtoArray Human Protein MicroArray (human); assay: peptide or protein array; biotinylated mClec9A-ecto or Cire-ecto hybridized to ProtoArray Human Protein MicroArray v4.1 of GST-tagged human proteins; detected with Streptavidin-Alexa Fluor 647; hits Z-score >3; both purified

| binding [1] | binding [2] | binding [3] | binding [4] | Molecule |
| --- | --- | --- | --- | --- |
| no binding (tested: 10 μg/ml) | – | – | – | FLAG-tagged recombinant human CLEC9A ecto-domains (hCLEC9A-ecto) (from UniProt Q6UXN8 57-241) (domain or fragment) |
| no binding (tested: 10 μg/ml) | no binding (tested: 10 μg/ml) | no binding | – | FLAG-tagged mClec12A-ecto (domain or fragment, UniProt Q504P2 65-267) YTTLATEMIKSNQLQRAKEELQENVFLQLKHNLNSSKKIKNLSAMLQSTATQLCRELYSKEPEHKCKPCPKGSEWYKDSCYSQLNQYGTWQESVMACSARNASLLKVKNKDVLEFIKYKKLRYFWLALLPRKDRTQYPLSEKMFLSEESERSTDDIDKKYCGYIDRVNVYYTYCTDENNIICEETASKVQLESVLNGLPEDSR |
| – | – | – | no binding | Cire/DC-SIGN ectodomain (Cire-ecto) (domain or fragment, UniProt Q91ZX1 73-238, enzymatically biotinylated with BirA) VKVYKIPSSQEENNQMNVYQELTQLKAGVDRLCRSCPWDWTHFQGSCYFFSVAQKSWNDSATACHNVGAQLVVIKSDEEQNFLQQTSKKRGYTWMGLIDMSKESTWYWVDGSPLTLSFMKYWSKGEPNNLGEEDCAEFRDDGWNDTKCTNKKFWICKKLSTSCPSK |
